Experimental data: patent publication US10233209B2, “Inhibitors of the farnesoid x receptor and uses in medicine” (The United States of America, as represented by the …, priority 2013, dated 2019)

Tested on: HFD-induced obese mice
Test: Gly-MCA in C57BL/6N mice made obese by 12 weeks of high-fat diet
Format: in vivo, mouse
Settings: 5 mg/kg, 6 weeks
Excerpt: High-fat diet (HFD) (60% kcal consisting of fat) was purchased from Bioserv. […] Fxr^fl/fl and Fxr^ΔIE (Kim et al., J. Lipid Res. 48:2664-2672, 2007) mice were backcrossed with C57BL/6N mice for over 10 generations. For the antibiotic (the combination of bacitracin, neomycin, and streptomycin) study, male C57BL/6N mice from 6 weeks of age were fed a high-fat diet (“HFD) and administered 0.1% (w/v) of each compound (the combination of bacitracin, neomycin, and streptomycin) in the drinking water. […] For TβMCA in vivo, male C57BL/6N mice from 6 weeks of age were fed a HFD and treated with the antibiotics (0.1% of each compound of bacitracin, neomycin, and streptomycin combination) for 3 days. Vehicle (saline), TCA (400 mg/kg body weight, dissolved in saline) or a combination of TCA and TβMCA (400 mg/kg body weight of each compound, dissolved in saline) were orally administered to the mice and followed by a second dose 12 h later. The mice were killed 2 h later for tissue collection. For the Gly-MCA study, Gly-MCA was custom synthesized. […] Cumulative food intake and TEEbal were measured for 1 week in vehicle and Gly-MCA-treated mice from 6 to 7 weeks of HFD. TEEbal was measured as previously described (Ravussin et al., Int. J. Obesity 37:399-403, 2013).

Question: How did the “levels of TαMCA and TβMCA in ileum” value turn out when `C[C@H](CCC(=O)NCC(=O)O)[C@H]1CC[C@H]2[C@@H]3[C@@H](O)[C@@H](O)[C@@H]4C[C@H](O)CC[C@]4(C)[C@H]3CC[C@]12C` [Gly-MCA, glycine-β-muricholic acid] was run?
Answer: The value was “significantly enhanced”.
